# Experimental data reported in patent publication US12383512B2, “Cannabidiol-type cannabinoid compound” (Jazz Pharmaceuticals Research UK LImited, priority 2019, dated 2025).
# Test system: seizure threshold current for tonic hind limb extensor convulsions in mice
# Experiment: Maximal electroshock seizure threshold (MEST) test in the mouse
# Conditions: 2.5 mg/kg i.p., pre-treatment time 30 min
# Method: The efficacy of 6-OH CBD was tested in a mouse model of generalised seizure, the maximal electroshock seizure threshold (MEST) test.
# In the MEST test the ability of a drug to alter the seizure threshold current required to induce hind limb tonic extensor convulsions is measured according to an “up and down” method of shock titration (Kimball et al., 1957). An increase in seizure threshold is indicative of anti-convulsant effect.
# The ability of a test compound to alter the stimulus intensity, expressed as current (mA), required to induce the presence of tonic hind limb extensor convulsions, is assessed in the MEST.
# Naïve mice were acclimatised to the procedure room in their home cages for up to 7 days, with food and water available ad libitum.
# All animals were weighed at the beginning of the study and randomly assigned to treatment groups based on a mean distribution of body weight across groups.
# The first animal within a treatment group was given a shock at the expected or estimated CC50 current. For subsequent animals, the current was lowered or raised depending on the convulsions outcome from the preceding animal. […]
# 6-OH CBD effects were also calculated as percentage change in CC50 from the vehicle control group.
# Significant difference between drug-treated animals and controls were assessed according to Litchfield and Wilcoxon (1949).
smiles,measurement,setting,value
"CN1C(=O)CN=C(c2ccccc2)c2cc(Cl)ccc21 [Diazepam, diazepam, reference compound]",CC50 ± SEM,,48.8 ± 1.1 mA
same,CC50 ± SEM,listed as diazepam,48.8 mA
